# Source: PubChem BioAssay AID2551 (National Center for Advancing Translational Sciences (NCATS), 2010)
# Sequences of proteins named here, by UniProt entry; tags and fusion partners are left off. A change or cut given only in a name is not applied to a line headed by its entry.
# UniProt P51450: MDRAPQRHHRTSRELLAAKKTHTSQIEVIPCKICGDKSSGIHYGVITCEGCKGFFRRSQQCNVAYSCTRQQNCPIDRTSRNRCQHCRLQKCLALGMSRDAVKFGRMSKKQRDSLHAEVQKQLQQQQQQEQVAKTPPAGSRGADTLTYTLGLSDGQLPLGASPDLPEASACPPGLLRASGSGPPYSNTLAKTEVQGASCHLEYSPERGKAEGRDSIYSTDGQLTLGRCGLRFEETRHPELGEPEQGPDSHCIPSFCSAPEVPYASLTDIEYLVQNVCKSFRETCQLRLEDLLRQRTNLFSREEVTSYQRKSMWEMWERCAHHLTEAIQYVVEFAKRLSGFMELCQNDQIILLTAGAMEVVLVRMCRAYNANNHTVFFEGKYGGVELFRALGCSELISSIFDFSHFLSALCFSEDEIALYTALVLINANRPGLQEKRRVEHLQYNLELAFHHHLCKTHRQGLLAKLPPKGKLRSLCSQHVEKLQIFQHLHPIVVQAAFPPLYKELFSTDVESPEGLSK
# The whole screen tested about 310,000 compounds, of which about 17,000 (5.5%) were called active. Inconclusive means that the source gave no clear call. Such entries were picked first, then a sample of the others. Calls come from the whole dose curve; as a rule, active = well fitted inhibition curve with a large enough effect; inconclusive = small, poorly fitted or top-dose-only effect, or effect the other way; inactive = no such curve, though single readings can be large or run the other way. Where the call is inconclusive, the potency comes from a doubtful curve fit.
# Target: Nuclear receptor ROR-gamma (Mus musculus) (UniProt P51450)
# Experiment: qHTS for inhibitors of ROR gamma transcriptional activity; note: nearly all actives have a fitted effect of over 60% in size
# Conditions: Drosophila S2 Gal4-RORgamma UAS-luciferase reporter, 20 h; activity change, negative = inhibition: at 53.6 µM (top of the series)
# How it was run: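 Stably transfected Drosophila Schneider cells are the test system, with ROR gamma fused to Gal4 and luciferase under UAS control; luminescence is read after 20 hr of 700 uM copper sulfate induction at ambient temperature.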
# % is set by controls: 0 for no effect and ±100 for the full control effect; potency is the fitted concentration of half-maximal effect.
SMILES,Potency,"activity change, negative = inhibition"
COC(=O)c1c(NC(=O)CN2C(=O)NC(CCc3ccccc3)C2=O)sc2c1CCCCC2 (configuration not stated),"inconclusive: 10 µM [activator, partial curve, poor fit]",
CC(NC(=O)CN(C)Cc1cccs1)c1ccccc1 (configuration not stated),inactive,
CCOc1ccc(N(C)c2ccc(/C=C3/SC(=S)NC3=O)cc2)cc1,inactive,
Cc1cc(C(C)(C)C)cc(S(=O)(=O)NCC(=O)O)c1C,inactive,
COc1cc(C=O)ccc1OCC(=O)Nc1ccccc1N1CCOCC1,"inconclusive: 15.8 µM [activator, single point]",
Cc1cc(C(C)(C)C)cc(C)c1C[n+]1ccc2ccccc2c1,"inconclusive: 3.16 µM [activator, partial curve]",
O=C(/C=C/c1ccc([N+](=O)[O-])cc1)NCc1cccs1,"inconclusive: 12.6 µM [activator, partial curve]",
Cc1cc(C)nc(SCNC(=O)c2ccc(Cl)cc2)n1,"inconclusive: 35.5 µM [inhibitor, single point]",
COC(=O)c1ccc(CSc2ncnc3ccccc23)o1,"inconclusive: 0.708 µM [inhibitor, single point]",
Nc1ccc(-c2nc3ccc(N)cc3o2)cc1,"inconclusive: 12.6 µM [inhibitor, single point]",
Cc1ccc(S(=O)(=O)c2c(C(=O)c3ccccc3)cnc3cc4c(cc23)OCCO4)cc1,"inconclusive: 0.794 µM [activator, full curve, poor fit]",
CC(C)c1ccc(NC(=O)CCNS(=O)(=O)c2cccc3nonc23)cc1,"inconclusive: 11.2 µM [activator, single point]",
S=c1nc(-c2ccc(Cl)cc2)[nH][nH]1,active: 8.91 µM,
CC(=O)Nc1ccc(S(=O)(=O)Nc2ccc([N+](=O)[O-])cc2)cc1,"inconclusive: 22.4 µM [inhibitor, single point]",
COc1ccc(NC(=O)Nc2nc3c(s2)CCCC3)cc1,"inconclusive: 0.891 µM [activator, full curve]",
CCC(NC(=O)c1cc(COc2cncc(Cl)c2)on1)c1ccc(C)cc1 (configuration not stated),"inconclusive: 35.5 µM [activator, single point]",
Cc1ccc(-c2nnc(-c3ccc(NC(=O)Cc4cccs4)cc3)o2)cc1,inactive,
COc1cc(C(=O)NCCOc2cc(C)cc(C)c2)c(Br)c(OC)c1OC,inactive,
COc1ncccc1C(=O)NC1CCCc2c1cnn2-c1ccc(C)c(C)c1 (configuration not stated),inactive,
O=C(Nc1nc(-c2cccs2)cs1)c1ccc(Cl)cc1,"inconclusive: 1.12 µM [activator, full curve, poor fit]",
Cc1ccccc1N1CCN(C2CCCN(C(=O)c3cnsn3)C2)CC1 (configuration not stated),inactive,
OC(c1ccc(Cl)cc1)c1nnc(-c2ccccc2)o1 (configuration not stated),"inconclusive: 11.2 µM [activator, partial curve]",
CC(C)(C)c1ccc(C(=O)NC(=S)NNC(=O)c2cccs2)cc1,active: 3.98 µM,
COCCn1c(=O)[nH]c2cc(C(=O)N3CCN(c4cccc(C(F)(F)F)c4)CC3)ccc2c1=O,"inconclusive: 6.31 µM [activator, partial curve]",

SMILES,Potency,"activity change, negative = inhibition"
Cc1cc(=S)[nH]c2ccccc12,"inconclusive: 0.398 µM [inhibitor, full curve]",
Cc1noc(C)c1-c1nccc(N2CCOCC2)n1,"inconclusive: 35.5 µM [inhibitor, single point]",
O=C1NCCC/C1=N\Nc1ccc(Br)cc1,"inconclusive: 35.5 µM [activator, single point]",
O=c1c2ccccc2c(C=NC2CCN(Cc3ccccc3)CC2)c(O)n1Cc1ccc2c(c1)OCO2,inactive,
Brc1ccc(Sc2cnc3ccccc3n2)cc1,inactive,
Cc1ccc(NC(=O)c2ccccc2NS(=O)(=O)c2ccc(Cl)s2)cc1S(=O)(=O)N1CCOCC1,"inconclusive: 28.2 µM [inhibitor, single point]",
COc1ccc(/C=N/N=C(\N)c2nonc2N)cc1,"inconclusive: 12.6 µM [inhibitor, single point]",
CCCCCc1c(O)c2ccccc2[nH]c1=O,,inactive: 32.6% [at 0.365 µM]
COc1ccc(C2/C=C\CN(C(=O)C3CCCCC3)C(Cc3ccccc3)C(=O)N2Cc2ccc(F)cc2)cc1 (configuration not stated),inactive,
O=C(NCc1ccc(Cl)cc1)c1ccc(-c2ccccc2C(F)(F)F)o1,inactive,
COC(=O)c1ccc(NC(=S)Nc2cccc(C)n2)cc1,active: 2 µM,
COc1ccc(OC2C(=O)N(Cc3ccc4c(c3)OCO4)C2c2sccc2C)cc1 (configuration not stated),"inconclusive: 15.8 µM [activator, single point]",
CC(=O)c1cn(CCOc2cc(C)ccc2C)c2ccccc12,"inconclusive: 2.82 µM [activator, partial curve]",
Cc1ccc(/C=N\NC(=O)c2cc(OCC(F)(F)F)ccc2OCC(F)(F)F)cc1,"inconclusive: 7.94 µM [inhibitor, partial curve, poor fit]",
CCOC(=O)c1c(NC(=O)CCC(=O)O)sc2c1CC(C)(C)OC2,"inconclusive: 35.5 µM [inhibitor, single point]",
COC(=O)c1c(NC(=O)CN(c2ccccc2)S(C)(=O)=O)sc2c1CCCC2,"inconclusive: 35.5 µM [activator, single point]",
C/C=C/c1ccc(OCCOCCNCc2ccccc2)c(OC)c1,,inactive: 0.117% [at 1.91 µM]
COc1cc(/C=C/C2=CC(C)(C)NC(=S)N2)cc(OC)c1OC,active: 3.55 µM,
O=[N+]([O-])c1ccccc1/C=N/n1c(-c2cccnc2)n[nH]c1=S,"inconclusive: 11.2 µM [inhibitor, single point]",
O=C1CC(c2ccco2)=Nc2ccccc2N1,inactive,
O=C(c1cc(N2C(=O)C3C4CCC(C4)C3C2=O)ccc1Cl)N1CCN(c2ccccc2F)CC1 (configuration not stated),"inconclusive: 3.55 µM [activator, full curve]",
S=C(NCCCN1CCOCC1)N1CCN(c2ccccc2)CC1,inactive,
Cc1ccc(C)c(-n2c(C)cc(/C=N/NC(=O)c3c(C)nc4cc(C)ccn34)c2C)c1,"inconclusive: 22.4 µM [inhibitor, single point]",
O=c1c2ccccc2nc2n1C(CSc1ccc(Br)cc1)CN2 (configuration not stated),"inconclusive: 4.47 µM [activator, partial curve, poor fit]",

# Quoted at random: 4 records from the list, in no set order.
SMILES,Potency,"activity change, negative = inhibition"
O=C(Nc1nc(-c2cccs2)cs1)c1ccc(Cl)cc1,"inconclusive: 1.12 µM [activator, full curve, poor fit]",
CCC(NC(=O)c1cc(COc2cncc(Cl)c2)on1)c1ccc(C)cc1 (configuration not stated),"inconclusive: 35.5 µM [activator, single point]",
O=c1c2ccccc2c(C=NC2CCN(Cc3ccccc3)CC2)c(O)n1Cc1ccc2c(c1)OCO2,inactive,
O=C(NCc1ccc(Cl)cc1)c1ccc(-c2ccccc2C(F)(F)F)o1,inactive,

# More structures follow.

SMILES,Potency,"activity change, negative = inhibition"
Cc1ccc(NS(=O)(=O)c2ccc3c(c2)n(C)c(=O)n3C)cc1C,"inconclusive: 22.4 µM [activator, single point]",
COC(=O)CN1C(=S)N(Cc2ccccc2)C(=O)C1CC(=O)Nc1ccc(Br)cc1 (configuration not stated),"inconclusive: 22.4 µM [activator, single point]",
COc1cc(/C=N/N2CCOCC2)ccc1OC(=O)c1ccco1,"inconclusive: 35.5 µM [activator, single point]",
NNC(=O)c1cc2cc3ccccc3nc2s1,active: 12.6 µM,
COc1cc(/C(C)=N/Nc2ccc(C(=O)O)cc2)cc(OC)c1OC,"inconclusive: 7.08 µM [inhibitor, partial curve]",
O=C1CCN(CCc2ccccc2)CCN1C(CSc1ccc(Br)cc1)Cc1ccccc1 (configuration not stated),"inconclusive: 8.91 µM [activator, partial curve]",
NC(=O)c1c(NC(=O)c2ccco2)sc2c1CCC2,"inconclusive: 0.1 µM [activator, full curve, poor fit]",
O=C(NNC(=O)c1sccc1-n1cccc1)c1cccc(Cl)c1,"inconclusive: 3.55 µM [activator, single point]",
CC(OC(=O)CCc1nc2ccccc2c(=O)[nH]1)C(=O)NC1CCCC1 (configuration not stated),"inconclusive: 1.41 µM [activator, partial curve, poor fit]",
C/C=C\C1=C(CO)C(=O)[C@@H]2OC2C1=O (some centres not stated),"inconclusive: 5.01 µM [inhibitor, single point]",
CC(C)(C)C(=O)NC(=S)N1CCc2ccccc21,active: 5.01 µM,
CCc1c(O)nc(SCC(=O)Nc2nc3ccccc3s2)n(-c2ccccc2)c1=O,"inconclusive: 35.5 µM [inhibitor, single point]",
Cc1ccc(S(=O)(=O)Nc2cccc3ncccc23)s1,active: 0.282 µM,
N#Cc1nc(-c2ccc(Cl)cc2)oc1NCc1ccco1,"inconclusive: 2 µM [activator, full curve]",
CC(C)=CCc1c(O)cc2oc3c(CC=C(C)C)c(O)c(O)c(CC=C(C)C)c3c(=O)c2c1O,"inconclusive: 20 µM [inhibitor, single point]",
CC(C)OC(=O)Nc1ccc2nc(-c3cscn3)[nH]c2c1,"inconclusive: 35.5 µM [inhibitor, single point]",
CNC(=S)N/N=C/c1c(C)cccc1Cl,active: 2.24 µM,
Cc1nn2c(nc(N3CCCCC3)c3ccccc32)c1C=O,"inconclusive: 8.91 µM [activator, partial curve]",
CC(=O)OC1CCC2(C)C(=CCC3C2CCC2(C)C3C[C@@H]3O[C@]32C(C)=O)C1 (some centres not stated),inactive,
Cc1ccccc1NC(=S)N(CCN(C)C)C(C)c1cccnc1 (configuration not stated),inactive,
Cc1cc(N2CCOCC2)c2c(N)c(Br)cc(C)c2n1,"inconclusive: 2.51 µM [inhibitor, full curve, poor fit]",
S=c1[nH]nc(-c2ccc(Cl)cc2)n1-c1ccc2c(c1)OCCO2,active: 3.16 µM,
COc1cc2c(cc1NC(=O)CN(C)Cc1ccc(OC)c(OC)c1)oc1ccccc12,"inconclusive: 12.6 µM [activator, partial curve, poor fit]",
C=CCN1C=C2C(=O)C(C)(OC(=O)C3CCCC3)C(=O)C=C2C=C1c1ccsc1 (configuration not stated),inactive,
